{"source": "patent US5229412A", "about": "“Method for relieving anxiety using 5-hydroxytryptamine-1A-receptor-binding compounds” (The Board of Trustees of the Leland Stanford Junior …, priority 1988, dated 1993)", "assay": "Stability of Compounds 8-11 on storage", "format": "physicochemical", "details": "for decomposition in methanolic solution: 10 mg/ml; for decomposition in the solid state: about one month of storage at -20° C., unless rigorously dry; for tendency to decompose: observed during characterisation", "experimental": "Methanolic solutions (10 mg/ml) are suitable storage forms.", "note": "Some of these results come from one statement about several compounds together.", "data": [{"smiles": "CC(C)(NCC(O)COc1cccc2[nH]c(C#N)cc12)[C@H]1CC[C@@](C)(NC(=O)CBr)CC1", "note": "(stereo partly shown) [Compound 11]", "values": [{"measurement": "decomposition in methanolic solution", "setting": "4° C., two months", "result": "decomposition was barely detectable"}, {"measurement": "decomposition in methanolic solution", "setting": "-20° C., three months", "result": "no decomposition was detected"}, {"measurement": "decomposition in the solid state", "result": "traces of decomposition"}, {"measurement": "tendency to decompose", "result": "had a tendency to decompose"}]}, {"smiles": "CC(C)(NC(=O)CBr)[C@H]1CC[C@@](C)(NCC(O)COc2cccc3[nH]c(C#N)cc23)CC1", "note": "(stereo partly shown) [Compound 10, N^8-(Bromoacetyl)-N1-[3-[(2-cyano-4-indolyl)oxy]-2-hydroxYpropyl]-(Z)-1,8-diamino-p-menthane]", "values": [{"measurement": "decomposition in methanolic solution", "setting": "4° C., two months", "result": "decomposition was barely detectable"}, {"measurement": "decomposition in methanolic solution", "setting": "-20° C., three months", "result": "no decomposition was detected"}, {"measurement": "decomposition in the solid state", "result": "traces of decomposition"}, {"measurement": "tendency to decompose", "result": "had a tendency to decompose"}]}, {"smiles": "CC(C)(NC(=O)CBr)[C@H]1CC[C@@](C)(NCC(O)COc2cccc3[nH]ccc23)CC1", "note": "(stereo partly shown) [Compound 8, N^8-(Bromoacetyl)-N^1-[3-(4-indolyloxy)-2-hydroxypropyl]-(Z)-1,8-diamino-p-menthane]", "values": [{"measurement": "decomposition in methanolic solution", "setting": "4° C., two months", "result": "decomposition was barely detectable"}, {"measurement": "decomposition in methanolic solution", "setting": "-20° C., three months", "result": "no decomposition was detected"}, {"measurement": "decomposition in the solid state", "result": "traces of decomposition"}, {"measurement": "tendency to decompose", "result": "had a tendency to decompose"}]}, {"smiles": "CC(C)(NCC(O)COc1cccc2[nH]ccc12)[C@H]1CC[C@@](C)(NC(=O)CBr)CC1", "note": "(stereo partly shown) [Compound 9, N^1 (Bromoacetyl)-N^8-[3-(4-indolyloxy)-2-hydroxypropyl]-(Z)-1,8-diamino-p-menthane]", "values": [{"measurement": "decomposition in methanolic solution", "setting": "4° C., two months", "result": "decomposition was barely detectable"}, {"measurement": "decomposition in methanolic solution", "setting": "-20° C., three months", "result": "no decomposition was detected"}, {"measurement": "decomposition in the solid state", "result": "traces of decomposition"}, {"measurement": "tendency to decompose", "result": "had a tendency to decompose"}]}]}
